Measured values as given in patent US5698563A, “Bis-[hydrazones]” (Alteon Inc., priority 1995, dated 1997).
Structures can show the parent of a compound that is named as a salt. At least one structure is not confirmed: it was looked up by name or label, or the drawing left a doubt.

System: cross-linking of glycated bovine serum albumin (AGE-BSA) to the rat tail tendon collagen
Assay: Inhibition of cross-linking of glycated bovine serum albumin (AGE-BSA) to rat tail tendon collagen coated 96-well plate (ELISA)
Type: biochemical
Conditions: test compounds at 10 Mm; AGE-BSA on collagen coated plate, pH 7.4, 37° C., 4 hours; read-out: IC50 (relative inhibition by various test compounds)
Description: The following method was used to evaluate the ability of the compounds of the present invention to inhibit the cross-linking of glycated bovine serum albumin (AGE-BSA) to the rat tail tendon collagen coated 96-well plate.
The AGE-BSA was prepared by incubating BSA at a concentration of 200 mg per ml with 200 mM glucose in 0.4M sodium phosphate buffer, pH 7.4 at 37° C. for 12 weeks. The glycated BSA was then extensively dialyzed against phosphate buffer solution (PAS) for 48 hours with additional 5 times buffer exchanges. The rat tail tendon collagen coated plate was blocked first with 300 μl of superbloc blocking buffer (Pierce #37515X) for one hour. The blocking solution was removed from the wells by washing the plate twice with PAS-Tween 20 solution (0.05% Tween 20) using a NUNC-multiprobe or Dynatech ELISA-plate washer. […] The cross-linked AGE-BSA to the tail tendon coated plate was then quantitated by the polyclonal antibody raised against AGE-RNase. […]
The bound AGE antibody was then detected with the addition of horseradish peroxidase-conjugated secondary antibody, e.g., goat anti-rabbit immunoglobulin and incubation for 30 minutes. […] The reaction was allowed for an additional 15 minutes and the absorbance was read at 410 nm in a Dynatech plate reader.
The % inhibition of each test compound was calculated as follows. […]

C(=NNC1=NCCN1)C(=NNC1=NCCN1)c1ccccc1 [phenyl glyoxal bis(2-hydrazino-2-imidazoline hydrazone) dihydrobromide monohydrate]
IC50: 50 µM
